The list shows a part of the results. Shown are side measurements of this screen, not its main read-out; they come without a call. The list favours compounds with an active or inconclusive main result. The note in brackets gives the kind of curve behind each potency; many fits are weak.
Test: Cell signaling CRE-BLA (Fsk stim)
Details: CHO CRE-bla reporter (cAMP response element driving beta-lactamase), forskolin EC10, beta-lactamase ratio; measured here: 460 nm blue channel
Summary of the method: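 Using CellSensor CRE-bla CHO cells in Opti-MEM with 0.5% dialyzed FBS, compounds were titrated with EC10 NKH 477 for 3 h at 37 °C. CCF4 ratio (460/530 nm) gave %Activity; AC50 derived.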

| Structure (SMILES) | AC50 |
| --- | --- |
| O=C(N1CCOCC1)N(Cc1ccccc1)c1ccccn1 | 25.1 µM [rising, single point] |
| CCCCn1cnc2c(c(CC#N)nn2-c2ccccc2)c1=N | 5.01 µM [rising, single point] |
| COC(=O)c1ccc(Oc2cc(C)nc(SC)n2)cc1 | 25.1 µM [rising, single point] |
| COc1ccc(CCNc2c(N)n(Cc3ccccc3)c(=O)[nH]c2=O)cc1OC | 10 µM [rising, single point] |
| CCCn1c(NC(=O)c2cccc(S(=O)(=O)N3CCCC3)c2)nc2ccccc21 | 10 µM [falling, partial curve] |
| COc1ccc(C2C(C#N)=C(/N=C/N3CCN(C)CC3)OC3=C2C(=O)CC(C)(C)C3)cc1OC (configuration not stated) | 0.158 µM [rising, full curve, poor fit] |
| O=C(C1CCC1)N1CCc2cc(S(=O)(=O)Nc3ccc4c(c3)OCO4)ccc21 | 5.01 µM [rising, partial curve] |
| COC(=O)c1cc(OC)c(OC)cc1NC(=O)c1ccccc1 | 0.316 µM [rising, full curve] |
| CCCCCn1c(N2CCN(c3cccc(Cl)c3)CC2)nc2c1c(=O)[nH]c(=O)n2C | 15.8 µM [falling, partial curve, poor fit] |
| COC(=O)[C@H](C)NC(=O)Nc1cc(OC)ccc1OC | 20 µM [falling, partial curve] |
| CN1CCCN(C(=O)Cc2c(Cl)cccc2Cl)c2nc3ccccc3nc21 | 6.31 µM [rising, single point] |
| Cc1cc(NC(=O)CSc2nnc3c(C)cc4cc5c(cc4n23)OCO5)no1 | 2 µM [rising, single point] |
| CCCC(=O)N1CCN(c2ccc(NC(=O)c3cc4ccccc4o3)cc2Cl)CC1 | 25.1 µM [falling, single point] |
| Nc1c(NCCC2=CCCCC2)c(=O)[nH]c(=O)n1Cc1ccccc1 | 10 µM [rising, partial curve] |
| Cc1ccc(Cn2ccc(NC(=O)c3c(-c4ccccc4Cl)noc3C)n2)cc1 | 0.126 µM [falling, full curve] |
| CC(C)Oc1ccc2c3c(c(=O)oc2c1)CCC3 | 10 µM [rising, partial curve] |
| Cc1cc(OCCSc2nnc(-c3cccs3)n2C)ccc1Cl | 10 µM [falling, single point] |
| O=C1N2CCSC2=NC1(Nc1ccccn1)C(F)(F)F (configuration not stated) | 3.16 µM [falling, partial curve] |
| NC(=O)C1(N2CCCCC2)CCN(c2ccc3nnc(-c4ccccc4)n3n2)CC1 | 10 µM [rising, partial curve] |
| COc1cccc(NC(=O)Nc2nnc(N3CCCCC3C)s2)c1 (configuration not stated) | 25.1 µM [falling, single point] |
| O=C(CN1C(=O)c2cccc3cccc1c23)Nc1ccc(S(=O)(=O)N2CCOCC2)cc1 | 25.1 µM [rising, single point] |
| COc1cc2c(cc1NC(=O)c1ccco1)CCCC2 | 0.00316 µM [falling, full curve, poor fit] |
| COC(=O)C1=C(C)NC2=C(C(=O)CC(c3cccs3)C2)C1c1ccsc1 (configuration not stated) | 12.6 µM [rising, single point] |

| Structure (SMILES) | AC50 |
| --- | --- |
| O=C(NCCOc1ccccc1)c1n[nH]c(=O)c2ccccc12 | 10 µM [rising, partial curve] |
| C=Cc1c(C)c2cc3nc(cc4[nH]c(cc5nc(cc1[nH]2)C(C)=C5CCC(=O)O)c(CCC(=O)OC)c4C)[C@@]1(C)C3=CC=C(C(=O)OC)[C@H]1C(=O)OC (tested in a mixture with another compound) | 12.6 µM [rising, single point] |
| COc1cccc(Cn2c(=O)c(-c3ccc(F)c(F)c3)nc3cncnc32)c1 | 15.8 µM [rising, partial curve] |
| CCOC(=O)c1oc2ccccc2c1NC(=O)c1ccc(S(=O)(=O)N2CCCC2)cc1 | 2 µM [rising, full curve] |
| NC(=O)c1oc2ccccc2c1NC(=O)CN1CCCCC1 | 3.98 µM [falling, full curve, poor fit] |
| C=CCN=C(NC#N)SCC(=O)NC(C)(C)C | 7.94 µM [falling, partial curve, poor fit] |
| COc1ccc(CCNc2oc(COc3ccccc3F)nc2C#N)cc1 | 25.1 µM [falling, single point] |
| Cc1cc(C(=O)Nc2sc3c(c2C#N)CCC(C)C3)no1 (configuration not stated) | 25.1 µM [rising, single point] |
| O=C(c1ccc(Cl)s1)N1CCN(c2ccccc2)CC1 | 12.6 µM [rising, partial curve] |
| Oc1c(C(c2ccco2)N2CCN(C(c3ccccc3)c3ccccc3)CC2)sc2ncnn12 (configuration not stated) | 12.6 µM [rising, partial curve] |
| O=C(Nc1cccc(Cl)c1)N(Cc1nc2ccccc2c(=O)[nH]1)C1CCCC1 | 20 µM [rising, single point] |
| O=C(C1CCCN1S(=O)(=O)c1ccc(Cl)cc1)N1CCOCC1 (configuration not stated) | 0.00398 µM [falling, full curve, poor fit] |
| COC(=O)/C=C/S(=O)(=O)c1ccc(NC(C)=O)cc1 | 5.01 µM [falling, full curve] |
| COc1ccc(-c2nn3c(-c4ccccc4)nnc3s2)cc1 | 15.8 µM [rising, single point] |
| Cc1cc(SCC(=O)NC(=O)NCc2ccco2)nc2c(C)cccc12 | 1.26 µM [falling, full curve] |
| O=C1CCCC2=C1C(Cc1ccccc1)C1=C(CCCC1=O)O2 | 31.6 µM [falling, single point] |
| CN(C)c1ccc(P(=O)(OCc2ccccc2)C(O)c2cccnc2)cc1 (configuration not stated) | 25.1 µM [falling, single point] |
| COc1cccc(-n2c(SCC(=O)Nc3cc(C)on3)nc3ccccc3c2=O)c1 | 7.94 µM [rising, partial curve] |
| CC(C)[C@H](NC(=O)Nc1cccc(C(F)(F)F)c1)C(=O)O | 12.6 µM [falling, partial curve, poor fit] |
| Cc1ccccc1OCC(=O)NCCC(=O)O | 0.251 µM [rising, partial curve, poor fit] |
| Cn1c(C(=O)NCCN2CCN(c3ccccc3F)CC2)cc2c(=O)n(C)c3ccccc3c21 | 2 µM [rising, full curve] |
| CCCCCCNc1c(C(=O)OCC)c(=O)[nH]c2ccccc12 | 5.01 µM [rising, partial curve] |
| Cc1cccc(CNc2cc(-c3c(C)noc3C)ncn2)c1 | 7.94 µM [rising, partial curve] |

An excerpt of these results, as comma-separated lines.
Structure (SMILES),AC50
NC(=O)c1oc2ccccc2c1NC(=O)CN1CCCCC1,"3.98 µM [falling, full curve, poor fit]"
C=CCN=C(NC#N)SCC(=O)NC(C)(C)C,"7.94 µM [falling, partial curve, poor fit]"
COc1ccc(CCNc2oc(COc3ccccc3F)nc2C#N)cc1,"25.1 µM [falling, single point]"
Cc1cc(C(=O)Nc2sc3c(c2C#N)CCC(C)C3)no1 (configuration not stated),"25.1 µM [rising, single point]"
O=C(c1ccc(Cl)s1)N1CCN(c2ccccc2)CC1,"12.6 µM [rising, partial curve]"
Oc1c(C(c2ccco2)N2CCN(C(c3ccccc3)c3ccccc3)CC2)sc2ncnn12 (configuration not stated),"12.6 µM [rising, partial curve]"
O=C(Nc1cccc(Cl)c1)N(Cc1nc2ccccc2c(=O)[nH]1)C1CCCC1,"20 µM [rising, single point]"
O=C(C1CCCN1S(=O)(=O)c1ccc(Cl)cc1)N1CCOCC1 (configuration not stated),"0.00398 µM [falling, full curve, poor fit]"
COC(=O)/C=C/S(=O)(=O)c1ccc(NC(C)=O)cc1,"5.01 µM [falling, full curve]"
COc1ccc(-c2nn3c(-c4ccccc4)nnc3s2)cc1,"15.8 µM [rising, single point]"
Cc1cc(SCC(=O)NC(=O)NCc2ccco2)nc2c(C)cccc12,"1.26 µM [falling, full curve]"
O=C1CCCC2=C1C(Cc1ccccc1)C1=C(CCCC1=O)O2,"31.6 µM [falling, single point]"
CN(C)c1ccc(P(=O)(OCc2ccccc2)C(O)c2cccnc2)cc1 (configuration not stated),"25.1 µM [falling, single point]"
COc1cccc(-n2c(SCC(=O)Nc3cc(C)on3)nc3ccccc3c2=O)c1,"7.94 µM [rising, partial curve]"
CC(C)[C@H](NC(=O)Nc1cccc(C(F)(F)F)c1)C(=O)O,"12.6 µM [falling, partial curve, poor fit]"
Cc1ccccc1OCC(=O)NCCC(=O)O,"0.251 µM [rising, partial curve, poor fit]"

(further entries)

| Structure (SMILES) | AC50 |
| --- | --- |
| O=C(CSc1ncnc2c1oc1ccccc12)N1CCCc2ccccc21 | 10 µM [rising, partial curve, poor fit] |
| Cn1cc(-c2nc3cnc(N4CCOCC4)nc3n(C3CC3)c2=O)c2ccccc21 | 15.8 µM [rising, partial curve] |
| CC1CCCC(NC2CCCCNC2=O)C1 (configuration not stated) | 0.00316 µM [falling, full curve, poor fit] |
| COc1ncc2nc(-c3ccc(F)cc3)c(=O)n(C[C@H]3CCCO3)c2n1 | 12.6 µM [rising, partial curve] |
| O=C(Cn1cnnn1)OCC(=O)c1ccc(Cl)s1 | 0.251 µM [falling, partial curve] |
| Nc1nc2n(n1)C(c1ccco1)CC(c1ccc(Cl)c(Cl)c1)N2 (configuration not stated) | 25.1 µM [falling, single point] |
| CCCc1nnc2n1N=C(c1ccc(OC)c(OC)c1)CS2 | 3.98 µM [rising, partial curve] |
| CC(C)CCn1c(Sc2nc3ccccc3s2)nc2c1c(=O)[nH]c(=O)n2C | 10 µM [rising, partial curve] |
| Cc1ccc(S(=O)(=O)NC(CC(=O)O)c2ccccc2)cc1 (configuration not stated) | 1 µM [rising, full curve] |
| COc1ccc(Cc2n[nH]c(=O)c3ccccc23)cc1OC | 12.6 µM [rising, partial curve] |
| CCc1nc(-c2ccc(-c3ccc(OC)cc3)nc2OC)no1 | 12.6 µM [rising, partial curve] |
| N#Cc1c(N)nc(SCC(=O)OCc2ccccc2)c(C#N)c1-c1ccco1 | 20 µM [rising, single point] |
| O=C1c2ccccc2C(Nc2ccc(F)c(Cl)c2)N1Cc1ccco1 (configuration not stated) | 12.6 µM [falling, single point] |
| CCOc1ccc2[nH]c(=O)c(CN(Cc3ccco3)Cc3nnnn3Cc3ccccc3)cc2c1 | 25.1 µM [rising, single point] |
| CCc1nc(N2CCCC2C(=O)O)c2oc3ccccc3c2n1 (configuration not stated) | 5.01 µM [falling, partial curve, poor fit] |
| COc1ccc(Nc2nc(N3CCCCC3)nc(N3CCCCC3)n2)c(OC)c1 | 0.398 µM [rising, partial curve] |
| CCN(CC)c1nc(C#N)cc(-c2ccc(OC)cc2)n1 | 10 µM [rising, partial curve] |
| CCOC(=O)N1CCN(C(=O)CSc2nc3ccccc3c(=O)n2-c2ccccc2)CC1 | 10 µM [rising, single point] |
| O=c1c2ccccc2nnn1CSc1nnc(-c2ccc3c(c2)OCO3)o1 | 5.01 µM [rising, single point] |
| O=c1cnc2cnc(N3CCOCC3)nc2n1Cc1ccc(F)cc1 | 12.6 µM [rising, partial curve] |
| C=CCOc1ccc(/C(O)=C2/C(=O)C(=O)N(CCCn3ccnc3)C2c2cccs2)cc1 (configuration not stated) | 1 µM [falling, partial curve, poor fit] |
